# Values quoted from earlier work, collected in patent US8007825B2, “Oral compositions containing a salivation inducing agent” (McNeil-PPC, Inc., priority 2005, dated 2011).
# Peptide text beside a SMILES is read from it.
# Details: relative to sucrose (standard = 1)
row,SMILES,sweetness index
1,O=C1NS(=O)(=O)c2ccccc21 [Saccharin],300
2,COC(=O)[C@H](Cc1ccccc1)NC(=O)[C@@H](N)CC(=O)O [Aspartame] (H-Asp-Phe-OMe),180
3,OC[C@@H](O)[C@@H](O)[C@H](O)[C@H](O)CO [Mannitol],0.7
4,O=C(CO)[C@@H](O)[C@H](O)[C@H](O)CO [Fructose],1.2-1.7
5,OC[C@H]1O[C@H](O[C@]2(CCl)O[C@H](CCl)[C@@H](O)[C@@H]2O)[C@H](O)[C@@H](O)[C@H]1Cl [Sucralose],600
6,OC[C@@H](O)[C@@H](O)[C@H](O)[C@@H](O)CO [Sorbitol],0.54-0.7
7,OC[C@@H](O)[C@H](O)[C@@H](O)CO [Xylitol],1.0
8,OC[C@H]1O[C@@](CO)(O[C@H]2O[C@H](CO)[C@@H](O)[C@H](O)[C@H]2O)[C@@H](O)[C@@H]1O [Sucrose],1
9,CC1=CC(=O)[N-]S(=O)(=O)O1.[K+] [Acesulfame K],200
